Test results taken from PubChem BioAssay AID1195 (EPA DSSTox, 2008).

System: human maximum recommended daily dose, FDA database
Assay: DSSTox (FDAMDD) FDA Maximum (Recommended) Daily Dose Database
Settings: TherapeuticCategory: none; active compounds read low
Text: The Food and Drug Administration (FDA) Center for Drug Evaluation and Research, Office of Pharmaceutical Science, Informatics and Computational Safety Analysis Staff's Maximum Recommended Daily Dose (FDAMDD) database contains values for over 1200 pharmaceuticals listed in Martindale: The Extra Pharmacopoeia (1973, 1983, and 1993) and The Physicians' Desk Reference (1995 and 1999). Some classes of chemicals were excluded from the FDAMDD database due to their unsuitability for most QSAR modeling programs. These were inorganic chemicals, high molecular weight polymers (>5000 Daltons), fibers, salts, mixtures of organic chemicals, and small molecules (<100 Daltons). FDAMDD is the non-proprietary portion of the database that was used in the QSAR analysis reported in the Main Citation. DSSTox FDAMDD has fewer substance records than the original MRDD Source database due to consolidation of partial structures (i.e., complexed entities) into a single record and elimination of duplicate entries. […]
Maximum recommended daily dose (or maximum recommended therapeutic dose) values were determined from pharmaceutical clinical trials that employed an oral route of exposure and daily treatments, usually for 3-12 months. […]

CC(=O)N(C)C
maximum recommended daily dose (mmol/kg-bw/day): 0.00669
